## Library screen at single concentrations

The chains behind the UniProt entries cited, without tags or fusion partners. Residues count along the entry.
UniProt A4I591, 1-473: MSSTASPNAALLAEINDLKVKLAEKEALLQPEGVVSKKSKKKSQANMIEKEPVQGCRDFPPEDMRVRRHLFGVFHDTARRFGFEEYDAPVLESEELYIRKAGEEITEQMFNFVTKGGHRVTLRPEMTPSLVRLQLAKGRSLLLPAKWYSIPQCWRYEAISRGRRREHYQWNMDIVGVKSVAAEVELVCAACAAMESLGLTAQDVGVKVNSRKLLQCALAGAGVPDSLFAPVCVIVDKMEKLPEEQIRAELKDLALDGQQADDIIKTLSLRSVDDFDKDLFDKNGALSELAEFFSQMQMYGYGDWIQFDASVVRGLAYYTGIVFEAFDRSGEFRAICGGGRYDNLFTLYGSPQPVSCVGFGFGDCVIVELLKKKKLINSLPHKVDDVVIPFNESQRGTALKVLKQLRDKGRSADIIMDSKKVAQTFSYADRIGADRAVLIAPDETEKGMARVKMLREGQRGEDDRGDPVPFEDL
UniProt P9WFT3, whole entry: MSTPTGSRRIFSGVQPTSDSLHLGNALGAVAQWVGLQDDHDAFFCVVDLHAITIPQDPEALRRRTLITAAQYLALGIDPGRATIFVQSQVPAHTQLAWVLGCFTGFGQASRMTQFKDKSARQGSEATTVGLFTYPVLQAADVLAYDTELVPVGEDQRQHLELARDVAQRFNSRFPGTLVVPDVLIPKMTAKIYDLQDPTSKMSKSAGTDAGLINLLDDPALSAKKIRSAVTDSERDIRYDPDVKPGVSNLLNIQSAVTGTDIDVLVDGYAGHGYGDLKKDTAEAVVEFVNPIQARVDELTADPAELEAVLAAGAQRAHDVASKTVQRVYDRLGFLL

Data taken from ChEMBL document CHEMBL3988442, “University of Dundee, Small-Polar-MMV Screening Library” (2021).

Values are the deposited “Percent Effect”, in %.
The controls that fix the scale are not given in the record; negative values are as filed.
Compounds were drawn at random from those tested, without regard to their results.

LiHisRS: 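Enzyme assay of histidyl-tRNA synthetase; the read-out is not stated. Target: Histidine-tRNA ligase, Leishmania infantum (UniProt A4I591). Tested at 30 µM. Higher reads as stronger inhibition (inferred: compounds with an IC50 in retests scored well above the rest). The assay is labelled LdHisRS but filed under L. infantum. Of about 69,000 compounds tested this way, about 410 (0.6%) reached 50% or more in at least one test.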
MtTrpRS: 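Tryptophan-tRNA ligase, Mycobacterium tuberculosis (UniProt P9WFT3). Enzyme assay of tryptophanyl-tRNA synthetase; the read-out is not stated. Compounds at 10 µM. Higher most likely means stronger inhibition; the record gives no direction and few retests gave an IC50. Size under these conditions: about 65,000 compounds, about 64 of them at 50% or above in at least one test.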

| Compound | LiHisRS | MtTrpRS |
|---|---|---|
| `COCc1nccc(C2CCCN(Cc3ccccc3C#N)C2)n1` (stereo not drawn) | 14.91 | 12.34 |
| `CCC(C)NC(=O)NCCC(=O)N1CCN(c2ccccn2)CC1` (stereo not drawn) | 22.47 | 1.761 |
| `COCCN1CCN(Cc2cccnc2)[C@H]2CS(=O)(=O)C[C@H]21` | 19.44 | 11.18 |
| `COCCn1nc(C(=O)N2CCN(C)CC2C)ccc1=O` (stereo not drawn) | 12.5 | -0.4566 |
| `O=C1CC[C@H]2[C@H](CCN2c2ncc(F)cn2)N1c1cccnc1` | 8.571 | -2.116 |
| `CN(CCO)C[C@@H]1CN(C(=O)Cc2ccc3ccccc3c2)C[C@@H]1CO` | 13.11 | -0.1575 |
| `CC(OCC1CC1)C(=O)Nc1cccc(C(=O)Nc2ccccn2)c1` (stereo not drawn) | 6.667 | -1.069 |
| `CCCN(Cc1ccc(S(=O)(=O)NC)cc1)Cc1ccccc1OC` | 4.478 | -2.275 |
| `Cc1cc(NCCCNS(C)(=O)=O)nc2ccccc12` | 3.896 | -0.5452 |
| `CNC(=O)Cc1ccccc1NC(=O)NCc1ccc(SC)cc1` | 3.333 | 0.3396 |
| `Cc1nc2ccccn2c1CN1C[C@@H](CN(C)CCO)[C@@H](CO)C1` | 12.9 | 1.286 |
| `CC(=O)Nc1nc(CN2CCOC(Cn3nc(C)cc3C)C2)cs1` (stereo not drawn) | -4.425 | 10.03 |
| `O=C(NC1(c2nnn(CC3CC3)n2)CCCC1)c1ccccc1` | 4.839 | -3.194 |
| `Cc1noc(CC2CCN(C(=O)C(c3ccccc3C)N(C)C)CC2)n1` (stereo not drawn) | 4.918 | 2.074 |
| `CN(C)C1CCCN(C(=O)c2ccc3sc4c(c3c2)CCNC4=O)CC1` (stereo not drawn) | 32.8 | 1.812 |
| `CC(C)c1nc2c(n1C)CCN(CC(=O)Nc1cccnc1)C2` | 11.5 | -0.5016 |
| `Cn1ccc(C(=O)NCc2ccccc2CN2CCCCC2)cc1=O` | 3.846 | -5.076 |
| `CC(NCC(N)=O)c1c(F)cccc1Cl` (stereo not drawn) | 14.81 | 2.442 |
| `CCOc1ccc(C(=O)N2CCCS2(=O)=O)cc1OC` | 15.52 | -6.496 |
| `COc1ccc(CN2CCC[C@@H]3CN(C(=O)c4ccco4)C[C@@H]32)cc1` | 23.53 | 1.438 |
| `Cn1ccc(C(=O)NCc2cccc(NC(=O)C3CCC3)c2)cc1=O` | 18.75 | 3.302 |
| `CCN(CC)c1ccc2ccc(C(=O)N(C)C)cn12` | 13.68 | -1.26 |
| `CN(C)c1ncc(CNC(=O)Nc2ccccc2C(F)(F)F)n1C` | -5.128 | 5.68 |
| `O=C(CSc1nnc(N2CCOCC2)s1)NC(=O)Nc1ccccc1` | 19.54 | 2.529 |
| `CC(C(=O)NCc1ccnc(OC2CCCC2)c1)n1cncn1` (stereo not drawn) | 20.55 | -3.086 |
| `Cc1nnc(NC(=O)NCc2ccoc2)s1` | 7.692 | 3.916 |
| `c1cc(CNCc2ccc(Cn3cncn3)cc2)c2c(c1)OCCO2` | 26.09 | 1.608 |
| `O=C(C1CN(Cc2ccoc2)CC12CCOCC2)N1CCCC1` (stereo not drawn) | 22 | 6.77 |
| `O=C(c1cc(-c2cccnc2)[nH]n1)N1CCCC(Cc2ccccn2)C1` (stereo not drawn) | -1.449 | 17.97 |
| `CCN(CC1CCCO1)S(=O)(=O)N1CCCCCC1` (stereo not drawn) | 12.09 | 0.4531 |
| `CN(C)CCn1ccnc1C1CCN(c2cc(N)nc(N)n2)CC1` | 22.35 | 2.001 |
| `NC(=O)C1CCN(C(=O)c2cc(S(=O)(=O)N3CCCC3)cs2)CC1` | -2.564 | -2.7 |
| `CC(C)c1cc(C(=O)N(c2ccc(F)cn2)C2CCOCC2)nn1C` | 21.13 | 1.917 |
| `O=C(O)c1c[nH]c2cc(NS(=O)(=O)c3cc(F)ccc3Cl)ccc12` | 1.923 | -2.611 |
| `Cc1nccn1[C@@H]1CC[C@@H](NC(=O)CCCn2cccn2)[C@H]1O` | 9.396 | -0.2514 |
| `CC(CNC(=O)c1cccc(-n2cccn2)c1)Cn1ccnc1` (stereo not drawn) | 21.13 | 2.926 |
| `COc1cccc(CNC(=O)c2cccnc2N)c1` | 9.655 | 9.248 |
| `CCSCc1cccc(NC2CCN(C)C2=O)c1` (stereo not drawn) | 3.333 | 3.396 |
| `O=C(c1ccc(C(F)(F)F)cc1)N1C[C@@H](CN2CCCCC2)[C@@H](CO)C1` | 1.042 | -3.153 |
| `CC(C)(NC(=O)Cc1ccccc1F)C(=O)O` | 14.29 | 0.07047 |
| `CCOc1ccc(NC(=O)c2[nH]c(C)cc2C)cc1CO` | 21.13 | -14.83 |
| `CCc1n[nH]c(=O)c(C(=O)N2CCOC3(CCCC3)C2)c1CC` | 25 | 2.441 |
| `CS(=O)(=O)N1CCOC(CNC(=O)c2cccc(C#N)c2)C1` (stereo not drawn) | 16.42 | -2.093 |
| `Cc1ccnc(Cn2cc(-c3cccc(C(C)N(C)C)c3)nn2)c1` (stereo not drawn) | 17.71 | -6.386 |
| `CC(C)c1ccc(C(O)CN2CCN(Cc3nccn3C)CC2)cc1` (stereo not drawn) | 9.735 | -4.639 |

For reference, 5 entries once more:

| Compound | LiHisRS | MtTrpRS |
|---|---|---|
| `Cc1nnc(NC(=O)NCc2ccoc2)s1` | 7.692 | 3.916 |
| `O=C(C1CN(Cc2ccoc2)CC12CCOCC2)N1CCCC1` (stereo not drawn) | 22 | 6.77 |
| `CC(=O)Nc1nc(CN2CCOC(Cn3nc(C)cc3C)C2)cs1` (stereo not drawn) | -4.425 | 10.03 |
| `CCC(C)NC(=O)NCCC(=O)N1CCN(c2ccccn2)CC1` (stereo not drawn) | 22.47 | 1.761 |
| `Cn1ccc(C(=O)NCc2cccc(NC(=O)C3CCC3)c2)cc1=O` | 18.75 | 3.302 |